According to patent US6410564B1, “Naphthyl compounds, intermediates, processes, compositions, and methods” (Eli Lilly and Company, priority 1994, dated 2002):
The name of at least one read-out is uncertain.

Tested on: ovariectomized (OVX) female Sprague Dawley rats
Assay: Serum cholesterol in OVX rats, 4-day dosing
Type: in vivo, rat
Conditions: oral daily for 4 days, hydrochloride
Description: Seventy-five day old female Sprague Dawley rats (weight range of 200 to 225 g) were obtained from Charles River Laboratories (Portage, Mich.). The animals were either bilaterally ovariectomized (OVX) or exposed to a Sham surgical procedure at Charles River Laboratories, and then shipped after one week. Upon arrival, they were housed in metal hanging cages in groups of 3 or 4 per cage and had ad libitum access to food (calcium content approximately 0.5%) and water for one week. Room temperature was maintained at 22.2°±1.7° C. with a minimum relative humidity of 40%. The photoperiod in the room was 12 hours light and 12 hours dark.
Dosing Regimen Tissue Collection. After a one week acclimation period (therefore, two weeks post-OVX) daily dosing with test compound was initiated. 17α-ethynyl estradiol or the test compound were given orally, unless otherwise stated, as a suspension in 1% carboxymethylcellulose or dissolved in 20% cyclodextrin. Animals were dosed daily for 4 days. Following the dosing regimen, animals were weighed and anesthetized with a ketamine: Xylazie (2:1, V:V) mixture and a blood sample was collected by cardiac puncture. The animals were then sacrificed by asphyxiation with CO2, the uterus was removed through a midline incision, and a wet uterine weight was determined.
Cholesterol Analysis. Blood samples were allowed to clot at room temperature for 2 hours, and serum was obtained following centrifugation for 10 minutes at 3000 rpm. Serum cholesterol was determined using a Boehringer Mannheim Diagnostics high performance cholesterol assay. Briefly the cholesterol was oxidized to cholest-4-en-3-one and hydrogen peroxide. The hydrogen peroxide was then reacted with phenol and 4-aminophenazone in the pressure of peroxidase to produce a p-quinone imine dye, which was read spectrophotemetrically at 500 nm. Cholesterol concentration was then calculated against a standard curve. The entire assay was automated using a Biomek Automated Workstation. […]

## COc1ccc(-c2ccc3cc(OC)ccc3c2Cc2ccc(OCCN3CCCCCC3)cc2)cc1.Cl [Example 26, [2-(4-Methoxyphenyl)-6-methoxynaphthalen-1-yl][4-[2-(1-hexamethyleneiminyl)ethoxy]phenyl]methane hydrochloride]
Dose 0.1 mg/kg
  Serum Cholesterol (% decrease vs. OVX): 56.9%
Dose 1.0 mg/kg
  Serum Cholesterol (% decrease vs. OVX): 68.1%
Dose 10.0 mg/kg
  Serum Cholesterol (% decrease vs. OVX): 56.6%
